The source of these data is paper PMC7862700.

Only a part is listed here, and it is no random draw. At the low end of the ranking, values are background and their order means little.

The test addresses T1, ELF3 (UniProt P78545).
T1 sequence: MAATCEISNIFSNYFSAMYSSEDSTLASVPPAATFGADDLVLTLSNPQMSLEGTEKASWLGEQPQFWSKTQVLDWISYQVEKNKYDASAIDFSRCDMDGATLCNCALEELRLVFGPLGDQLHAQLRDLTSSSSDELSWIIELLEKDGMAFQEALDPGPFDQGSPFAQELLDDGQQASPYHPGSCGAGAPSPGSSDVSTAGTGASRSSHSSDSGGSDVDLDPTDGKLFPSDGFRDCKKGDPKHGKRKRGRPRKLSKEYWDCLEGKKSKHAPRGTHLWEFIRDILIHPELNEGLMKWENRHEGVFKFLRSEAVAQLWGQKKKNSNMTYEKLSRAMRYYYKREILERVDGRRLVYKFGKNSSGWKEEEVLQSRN
The experiment in a line: DAPPL (digital affinity profiling via proximity ligation, sequencing). To be noted: 10 mM Tris-HCl pH 7.5, 50 mM NaCl, 1 mM DTT, 4% glycerol, room temperature, 30 min; GST-TFs on glutathione beads, 16-mer random dsDNA library, 0.1% …; high values mean tight binding; double strand, one strand shown; scale: fold enrichment (6-mer frequency, TF over GST control).
GGTAAG showed a binding signal of 0.775.

Regarding GGTCGA, the binding signal stood at 0.734.

Sequence AGCAAG yielded a binding signal of 0.951.

On to CGTGTA, for which the binding signal is 0.653.

Take CGGTAG: the binding signal came out at 0.857.

As for AGCGGG, the binding signal came out at 0.458.

The sequence CTGTCG yielded a binding signal of 0.578.

The sequence GGCGAT returned a binding signal of 0.8.

CGTAAG had a binding signal of 0.682.

GAGGGG registered a binding signal of 0.504.

Take CGTGCA: the binding signal came out at 0.702.

GTCGCC: the binding signal was determined as 0.88.

The sequence GCGCCA had a binding signal of 0.805.

The sequence GGGACT yielded a binding signal of 0.762.

The sequence CAGTAC returned a binding signal of 0.873.

ACACGT had a binding signal of 0.778.

For TGCAGG, the binding signal came to 0.959.

Take AGTGAG: the binding signal is 0.225.

As to CGGGTG, the binding signal came to 0.782.

CGGGCG registered a binding signal of 0.387.

Sequence TTCGTG yielded a binding signal of 0.878.

TGTGGG: the binding signal turned out to be 0.826.

For the sequence CAAGTC, the binding signal amounted to 0.859.

With GGGGCA, the binding signal worked out at 0.628.

As for ATGAGA, the binding signal was determined as 0.876.

Sequence TACCGT showed a binding signal of 0.707.

For CTGTGA, the binding signal amounted to 0.515.

In turn, CGGTGG came in with a binding signal of 0.503.

In the case of GTCGCT, the binding signal turned out to be 0.746.

In turn, GGCGCG registered a binding signal of 0.691.

In turn, GGAAAG displayed a binding signal of 0.95.

GACGCC showed a binding signal of 0.829.

As for ACGGTG, the binding signal was 0.574.

Take TAGACG: the binding signal is 0.794.

Regarding TGTCGT, the binding signal was 0.796.

Sequence GTCTGA registered a binding signal of 0.834.

In turn, GGCGTA came in with a binding signal of 0.636.

Turning to GTTAGA, the binding signal turned out to be 0.756.
